Data as given in publication PMC4912613, “A broad analysis of resistance development in the malaria parasite” (Nature Communications, 2016).

Assays:
Type in all cases: cell-based, Plasmodium falciparum
hsp90 (D88Y, parent Dd2) = test: Cross-resistance EC50 assay, hsp90; details: SYBR green 72 hour assay; synchronized parasites; 384-well format; strain HSP90 (Dd2 parent)
Text: (§1) To evaluate potential overlapping activity against known antimalarial drug targets, we performed dose-response studies with each compound against our assembled set of drug-resistant lines and their corresponding parents, in an asexual blood stage proliferation assay (Table 1). Comparisons were made to the drug-sensitive strain 3D7 when a parent was unavailable (TM90C2A, W2 and Dd2). As laboratories conducted EC50 assays with different strains and protocols, all comparisons were made between assays from the same laboratory and under the same assay conditions. Compounds displaying >5-fold EC50 shifts relative to the parent or sensitive strain were flagged as having potentially non-novel targets. Average fold shifts per strain ranged from 0.82 to 2.34, with a median of 1.23 indicating there was not common resistance to any one resistant clone. No resistance patterns were observed when classifying the compounds based on chemical structure, but this was not surprising given the diversity of compounds chosen. On the other hand, given that these confirmed compounds were derived from larger unconfirmed hit lists to which some filtration criteria may have been applied (for example, elimination of obvious dihydrofolate reductase inhibitors[32]), some[10][11][12][13] pre-existing bias may exist in the set. […]
(§2) Alternatively, a SYBR Green-based proliferation approach was used for the 72-h assay, as previously described. Briefly, a culture of either synchronized or asynchronous parasitized RBCs (0.3% parasitemia and 4% haematocrit) in screening medium (identical to supplemented medium above except no serum was added) was exposed to serial drug dilutions. Plates were incubated at 37 °C and gassed with 93% N2, 4% CO2 and 3% O2 for 72 h. Following incubation, 10 × SYBR Green I (Invitrogen; supplied in 10,000 × concentration) in lysis buffer ([…], 5 mM EDTA, 0.16% Saponin wt per vol and 1.6% Triton X vol per vol) was added to the wells and the plates were incubated overnight at room temperature before plate reading. EC50 assays were repeated three times, taking the average EC50 value from each assay set, and removing any outliers using a single iteration of Grubbs' test, eliminating values with z-scores above the critical z-value (α=0.05). The raw EC50 values for synchronized parasites assayed in a 384-well format are listed in Supplementary Data 4. The raw EC50 values for asynchronous parasites assayed in a 96 or 1536-well format are listed in Supplementary Data 5.
(§3) EC50 values for each strain were compared with those of the corresponding parent strain to determine fold-shift changes and identify resistance. To minimize the cause variance between assays, all comparisons were conducted between strains assayed under identical conditions. A one-way ANOVA followed by a Dunnet's post-test was conducted in GraphPad Prism to identify significant changes between the parent and resistant strain.

[1] = test system: PfATP4-Mut1 (PfATP4 V178I, parent W2); test: Cross-resistance EC50 assay, PfATP4-Mut1; details: hypoxanthine 48-hour assay; synchronized parasites; 96-well format; strain PfATP4 Mut1
Text: (§4) To evaluate potential overlapping activity against known antimalarial drug targets, we performed dose-response studies with each compound against our assembled set of drug-resistant lines and their corresponding parents, in an asexual blood stage proliferation assay (Table 1). Comparisons were made to the drug-sensitive strain 3D7 when a parent was unavailable (TM90C2A, W2 and Dd2). As laboratories conducted EC50 assays with different strains and protocols, all comparisons were made between assays from the same laboratory and under the same assay conditions. Compounds displaying >5-fold EC50 shifts relative to the parent or sensitive strain were flagged as having potentially non-novel targets. Average fold shifts per strain ranged from 0.82 to 2.34, with a median of 1.23 indicating there was not common resistance to any one resistant clone. No resistance patterns were observed when classifying the compounds based on chemical structure, but this was not surprising given the diversity of compounds chosen. On the other hand, given that these confirmed compounds were derived from larger unconfirmed hit lists to which some filtration criteria may have been applied (for example, elimination of obvious dihydrofolate reductase inhibitors[32]), some[10][11][12][13] pre-existing bias may exist in the set.
(§5) The 48-h assay was carried out in a 96-well format following standard methods using the ^3H-hypoxanthine incorporation assay. The raw EC50 values corresponding to this assay can be found in Supplementary Data 3. Briefly, this assay relies on the parasite incorporation of labelled hypoxanthine that is proportional to P. falciparum growth. A culture of parasitized RBCs (0.5% parasitemia with a percentage of ring stage higher than 70% of total parasitemia, 2.0% haematocrit) in RPMI-1640, […] and 5 μM hypoxanthine was exposed to drug serial dilutions. Plates were incubated for 24 h at 37 °C, 5% CO2, 5% O2 and 90% N2. After 24 h of incubation, ^3H-hypoxanthine was added and plates were incubated for an additional 24-h period. After that, parasites were harvested on a glass fibre filter using a TOMTEC Cell Harvester 96. Filters were dried and melt-on scintillator sheets were used to determine the incorporation of ^3H-hypoxanthine. Radioactivity was measured using a microbeta counter. Data were normalized using the incorporation of the positive (parasitized RBCs without drug) and negative (same culture with artesunate at 2 μM) controls. All assays were conducted in triplicate using three independently grown cultures, and EC50 values were determined using the XLfit add-in module for Excel (version 2.3.1) from Grafit (version 5.3.1.3), where parameter h is the assay hill slope, x is the compound concentration and y is the inhibition of growth effect. The XLfit equation is: […]
as §2, with “5. […]” for “5.”

[2] = test system: DHODH (E182D, parent 3D7); test: Cross-resistance EC50 assay, DHODH; details: SYBR green 72 hour assay; synchronized parasites; 384-well format; strain DHODH (3D7 parent)
Text: as §1, §2, §3

[3] = test system: TM90C2A (DHFR, folate pathway; compared with 3D7); test: Cross-resistance EC50 assay, TM90C2A; parameters: unit not given beside the values; details: hypoxanthine 48-hour assay; synchronized parasites; 96-well format; strain TM90C2A
Text: as §4, §5, §3

Row | SMILES | HSP90 (Dd2 Parent) Average Hill Slope (hsp90 (D88Y, parent Dd2)) | PfATP4 Mut1 (W2F6 Parent) Average Hill Slope [1] | DHODH (3D7 Parent) Average Hill Slope [2] | TM90C2A (3D7 Parent) Average Hill Slope [3]
1 | O=C(NC(c1ccccc1)c1ccc2cccnc2c1O)c1ccccc1 (centres unmarked) [MMV666080] | 2.65 | 0.66 | 2.74 | 1.02
2 | CN(C)S(=O)(=O)c1cc(-c2ccc3nccc(-c4cccc(S(N)(=O)=O)c4)c3c2)cnc1N [MMV024038] | 2.19 | 1.31 | 2.21 | 1.03
3 | Cc1nc2ccc3ccc(CNc4ccc(C(=O)CC(CCC(=O)O)C(=O)O)cc4)cc3c2c(=O)[nH]1.Cl (centres unmarked) [MMV027634] | 6.4 | 1.06 | 3.11 | 1.94
4 | CCN(CC)CCn1c(=N)n(CC(O)c2ccc(Cl)c(Cl)c2)c2ccccc21.Cl (centres unmarked) [MMV000248] | 6.24 | 4.32 | 22.3 | 1.30
5 | Brc1ccc(Nc2nc3ccccc3nc2Nc2ccc(Br)cc2)cc1 [MMV007224] | 5.37 | 2.20 | 5.77 | 1.26
6 | c1cncc(-c2cc(N3CCC(CN4CCOCC4)CC3)nc(-c3ccncc3)n2)c1 [MMV668399] | 3.35 | 1.19 | 2.88 | 1.76
7 | COc1ccc(N2CCN(C(CNC(=O)C3CCCCC3)c3ccc4c(c3)OCO4)CC2)cc1 (centres unmarked) [MMV019662] | 1.95 | 1.86 | 1.95 | 1.20
8 | OC(CNC1CCCCC1)Cn1c2ccc(I)cc2c2cc(I)ccc21 (centres unmarked) [MMV665882] | 1.94 | 1.68 | 1.80 | 1.14
9 | CCC(C)NCC(O)(c1ccc(Cl)cc1)c1ccc(Cl)cc1 (centres unmarked) [MMV665928] | 1.44 | 2.32 | 2.78 | 0.99
10 | CCCN(CCC)CC(O)COc1ccccc1C(=O)Nc1ccccc1 (centres unmarked) [MMV006455] | 1.73 | 2.37 | 2.18 | 2.70
11 | FC(F)(F)c1cccc(Nc2nc3ccccc3nc2Nc2cccc(C(F)(F)F)c2)c1 [MMV665794] | 4.19 | 7.10 | 7.47 | 2.51
